# Assay results

The results are deposited in PubChem (AID504749; NCATS, 2011).

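A panel of P. falciparum strains inside erythrocytes is exposed to compounds for three days, then a DNA-binding dye reports the amount of parasite DNA.
Each compound was titrated across a series from about 0.000037 to 29 µM.
The number is the fitted AC50, the concentration giving a half-maximal change in signal; a lower value means higher potency, whether the curve shows a decrease or an increase.
Calls follow the curve class and fit quality: every row here is inconclusive, covering signal-raising curves and weak, poorly fitted, partial or highest-dose-only inhibition curves.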

Values are in µM.
All entries here are filed as inconclusive.
Only part of the assay is shown, chiefly results filed as inconclusive.
Potencies fitted to partial, single-point or poorly fitting curves are rough.

SMILES: C=C1CC[C@H](O)C/C1=C/C=C1\CCC[C@]2(C)[C@@H]([C@H](C)CC[C@@H](O)C(C)(C)O)CC[C@@H]12
condition: CP260
Potency (µM): 11.22
curve: inhibitor, single point

SMILES: C=C1CC[C@H](O)C/C1=C/C=C1\CCC[C@]2(C)[C@@H]([C@H](C)CC[C@@H](O)C(C)(C)O)CC[C@@H]12
condition: CP335
Potency (µM): 19.01
curve: inhibitor, single point

SMILES: C=C1CC[C@H](O)C/C1=C/C=C1\CCC[C@]2(C)[C@@H]([C@H](C)CC[C@@H](O)C(C)(C)O)CC[C@@H]12
condition: ATS189
Potency (µM): 10
curve: inhibitor, single point

SMILES: C=C1CC[C@H](O)C/C1=C/C=C1\CCC[C@]2(C)[C@@H]([C@H](C)CC[C@@H](O)C(C)(C)O)CC[C@@H]12
condition: DFO2036
Potency (µM): 17.78
curve: inhibitor, single point

SMILES: C=C1CC[C@H](O)C/C1=C/C=C1\CCC[C@]2(C)[C@@H]([C@H](C)CC[C@@H](O)C(C)(C)O)CC[C@@H]12
condition: P94_40
Potency (µM): 12.59
curve: inhibitor, single point

SMILES: C=C1CC[C@H](O)C/C1=C/C=C1\CCC[C@]2(C)[C@@H]([C@H](C)CC[C@@H](O)C(C)(C)O)CC[C@@H]12
condition: CP191
Potency (µM): 17.78
curve: inhibitor, single point

SMILES: C=C1CC[C@H](O)C/C1=C/C=C1\CCC[C@]2(C)[C@@H]([C@H](C)CC[C@@H](O)C(C)(C)O)CC[C@@H]12
condition: P93_24
Potency (µM): 10
curve: inhibitor, single point

SMILES: C=C1CC[C@H](O)C/C1=C/C=C1\CCC[C@]2(C)[C@@H]([C@H](C)CC[C@@H](O)C(C)(C)O)CC[C@@H]12
condition: CP265
Potency (µM): 15.85
curve: inhibitor, single point

SMILES: C=C1CC[C@H](O)C/C1=C/C=C1\CCC[C@]2(C)[C@@H]([C@H](C)CC[C@@H](O)C(C)(C)O)CC[C@@H]12
condition: PAD
Potency (µM): 11.22
curve: inhibitor, single point

SMILES: C=C1CC[C@H](O)C/C1=C/C=C1\CCC[C@]2(C)[C@@H]([C@H](C)CC[C@@H](O)C(C)(C)O)CC[C@@H]12
condition: CP247
Potency (µM): 12.59
curve: inhibitor, single point

SMILES: C=C1CC[C@H](O)C/C1=C/C=C1\CCC[C@]2(C)[C@@H]([C@H](C)CC[C@@H](O)C(C)(C)O)CC[C@@H]12
condition: CP194
Potency (µM): 16.94
curve: inhibitor, single point

SMILES: C=C1CC[C@H](O)C/C1=C/C=C1\CCC[C@]2(C)[C@@H]([C@H](C)CC[C@@H](O)C(C)(C)O)CC[C@@H]12
condition: GB4
Potency (µM): 16.94
curve: inhibitor, single point

SMILES: C=C1CC[C@H](O)C/C1=C/C=C1\CCC[C@]2(C)[C@@H]([C@H](C)CC[C@@H](O)C(C)(C)O)CC[C@@H]12
condition: TAB113
Potency (µM): 11.22
curve: inhibitor, single point

SMILES: C=C1CC[C@H](O)C/C1=C/C=C1\CCC[C@]2(C)[C@@H]([C@H](C)CC[C@@H](O)C(C)(C)O)CC[C@@H]12
condition: HB3
Potency (µM): 8.912
curve: inhibitor, partial curve

SMILES: C=C1CC[C@H](O)C/C1=C/C=C1\CCC[C@]2(C)[C@@H]([C@H](C)CC[C@@H](O)C(C)(C)O)CC[C@@H]12
condition: 3D7
Potency (µM): 10
curve: inhibitor, single point

SMILES: C=C1CC[C@H](O)C/C1=C/C=C1\CCC[C@]2(C)[C@@H]([C@H](C)CC[C@@H](O)C(C)(C)O)CC[C@@H]12
condition: AA1029
Potency (µM): 10
curve: inhibitor, single point

SMILES: C=C1CC[C@H](O)C/C1=C/C=C1\CCC[C@]2(C)[C@@H]([C@H](C)CC[C@@H](O)C(C)(C)O)CC[C@@H]12
condition: CP252
Potency (µM): 17.78
curve: inhibitor, single point

SMILES: C=C1CC[C@H](O)C/C1=C/C=C1\CCC[C@]2(C)[C@@H]([C@H](C)CC[C@@H](O)C(C)(C)O)CC[C@@H]12
condition: ATS95
Potency (µM): 10
curve: inhibitor, single point

SMILES: CC(C)(C)NCC(O)c1ccccc1Cl (stereo unspecified)
condition: CP194
Potency (µM): 15.1
curve: inhibitor, single point

SMILES: CC(C)(C)NCC(O)c1ccccc1Cl (stereo unspecified)
condition: CP252
Potency (µM): 10
curve: inhibitor, single point

SMILES: CC(C)(C)NCC(O)c1ccccc1Cl (stereo unspecified)
condition: CP203
Potency (µM): 9.528
curve: inhibitor, partial curve

SMILES: CC(C)(C)NCC(O)c1ccccc1Cl (stereo unspecified)
condition: ATS189
Potency (µM): 10
curve: inhibitor, single point

SMILES: CC(C)(C)NCC(O)c1ccccc1Cl (stereo unspecified)
condition: CP238
Potency (µM): 15.85
curve: inhibitor, single point

SMILES: CC(C)(C)NCC(O)c1ccccc1Cl (stereo unspecified)
condition: CP335
Potency (µM): 10.69
curve: inhibitor, single point

SMILES: CC(C)(C)NCC(O)c1ccccc1Cl (stereo unspecified)
condition: CP266
Potency (µM): 0.4775
curve: inhibitor, full curve, poor fit

SMILES: CC(C)(C)NCC(O)c1ccccc1Cl (stereo unspecified)
condition: CP215
Potency (µM): 9.528
curve: inhibitor, partial curve, poor fit

SMILES: CC(C)(C)NCC(O)c1ccccc1Cl (stereo unspecified)
condition: PAD
Potency (µM): 12.59
curve: inhibitor, single point

SMILES: CC(C)(C)NCC(O)c1ccccc1Cl (stereo unspecified)
condition: CP247
Potency (µM): 3.548
curve: inhibitor, partial curve

Once more, the final 3:

SMILES	condition	Potency (µM)	curve
CC(C)(C)NCC(O)c1ccccc1Cl (stereo unspecified)	CP215	9.528	inhibitor, partial curve, poor fit
CC(C)(C)NCC(O)c1ccccc1Cl (stereo unspecified)	PAD	12.59	inhibitor, single point
CC(C)(C)NCC(O)c1ccccc1Cl (stereo unspecified)	CP247	3.548	inhibitor, partial curve